Assay results from US20190307811A1, “METHOD FOR TREATING AIRWAYS DISEASE” (HUDSON INSTITUTE OF MEDICAL RESEARCH, priority 2016, published 2019).
Some entries share one result that the patent states for a list of compounds.

Experiments:
[1] = test system: chronic model of ovalbumin (OVA)-induced AAD; assay: Subepithelial collagen deposition (Masson's trichrome), chronic OVA-induced AAD model; assay type: in vivo, Balb/c mice; details: vs OVA-injured mice
Method: To assess the individual vs combined effects of MSCs, AECs and RLX (serelaxin) in chronic AAD, a chronic model of ovalbumin (OVA)-induced AAD was established in mice (n=36). Mice were sensitized with two i.p. injections of 10 μg of Grade V chicken egg OVA (Sigma-Aldrich, Mo., USA) and 400 μg of aluminium potassium sulphate adjuvant (alum; AJAX Chemicals, NSW, Australia) in 500 μl of 0.9% w/v normal saline solution (Baxter Health Care, NSW, Australia) on day 0 and day 14. They were then challenged by whole body inhalation exposure (nebulization) to aerosolized OVA (2.5% w/v in 0.9% w/v normal saline) for thirty minutes, three times a week, between days 21 and 63, using an ultrasonic nebulizer (Omron NE-U07; Omron, Kyoto, Japan). Control mice (n=6) were given i.p injections of 500 μl 0.9% w/v saline and nebulized with 0.9% w/v saline instead of OVA.
On day 64 (1 day following completion of induction of the chronic AAD model), mice were lightly anaesthetized with isoflurane (Baxter Health Care, NSW, Australia) and held in a semisupine position while intranasal administration of the appropriate treatment took place. […]

[2] = test system: α-SMA-stained myofibroblasts; assay: Subepithelial myofibroblast accumulation (α-SMA IHC), chronic OVA-induced AAD model; assay type: in vivo, Balb/c mice; details: vs OVA alone group
Method: To assess the individual vs combined effects of MSCs, AECs and RLX (serelaxin) in chronic AAD, a chronic model of ovalbumin (OVA)-induced AAD was established in mice (n=36). Mice were sensitized with two i.p. injections of 10 μg of Grade V chicken egg OVA (Sigma-Aldrich, Mo., USA) and 400 μg of aluminium potassium sulphate adjuvant (alum; AJAX Chemicals, NSW, Australia) in 500 μl of 0.9% w/v normal saline solution (Baxter Health Care, NSW, Australia) on day 0 and day 14. […]
IHC was used to detect TGF-β1 (using a polyclonal antibody; sc-146; Santa Cruz Biotechnology, Santa Cruz, Calif., USA; 1:1000 dilution), α-smooth muscle actin (α-SMA; a marker of myofibroblast differentiation; using a monoclonal antibody; M0851; DAKO Antibodies, Glostrup, Denmark; 1:200 dilution) and thymic stromal lymphopoietin (TSLP; a marker for epithelial damage; using a polyclonal antibody; ABT330; EMD Millipore Corp'. Temecula, Calif., USA; 1:1000 dilution). Primary antibody staining was detected using the DAKO EnVision anti-rabbit or anti-mouse kits and 3,3′-Diaminobenzidine (DAB) chromogen, while negative controls, which were exposed to the EnVision kits in the absence of any primary antibody, were also included. […]

Serelaxin [RLX] was tested, and the “reduction of OVA-induced increase in subepithelial collagen deposition” value [1] was 35-45% and the “reduction of OVA-induced increase in subepithelial myofibroblast numbers” value [2] was 45-50%.
